PubChem BioAssay AID1053208, Peter MacCallum Cancer Centre – 2014
Assay: 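Find knock-downs that sensitise mouse osteosarcoma cells to doxorubicin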 (primary screen). Cells: mouse osteosarcoma cells, early-passage culture from an engineered mouse model of fibroblastic bone tumour. Reagent: siRNA pool against mouse genes, 40 nM. Duration: about 120 h (48 h before drug, then 72 h with drug). Conditions: doxorubicin 100 nM for 72 h, roughly 30-40% inhibitory dose. Detection: 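Luminescent ATP signal taken as viability with or without 100 nM doxorubicin for 72 h; mean of two wells set against non-targeting siRNA and turned into robust z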. Direction: viability z-score with doxorubicin: higher = more viable cells under doxorubicin; viability z-score without drug: higher = more viable cells with knock-down alone. Rule for the call: 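a pool counts as active when its viability z-score with doxorubicin is -2 or below and its z-score without drug lies between -2 and 2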.
This is one part, drawn at random, of about 17,000 deposited reagents. 788 of all reagents (4.7%) were called active. 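Calls rest on z-score classes alone; an extra cut-off of viability at most 70% of control was not applied to them.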 The numbers tell different reagents against one gene apart. Not all columns of the deposit are shown. No sequences are given here.

Gene	reagent no.	combined z-score class	viability z-score with doxorubicin	viability z-score without drug	call
Pik3r3	1	no change with or without drug	-0.67	-0.67	inactive
Phf1	1	no change with or without drug	-0.67	0.34	inactive
Sfpq	1	no change with or without drug	0.67	-0.51	inactive
Ly6g6d	1	no change with or without drug	0	-0.17	inactive
Ly6g6d	2	no change with or without drug	1.35	1.52	inactive
Mrps2	1	no change with or without drug	-1.46	-0.17	inactive
Pals1	1	low cell count with doxorubicin only	-2.02	-1.85	active
Lamc1	1	no change with or without drug	0.56	1.18	inactive
Rnf183	1	no change with or without drug	-0.67	-0.84	inactive
Pex5l	1	low cell count with doxorubicin only	-2.02	-1.18	active
Tomm22	1	low cell count without drug only	-1.57	-3.2	inactive
Or8d4	1	no change with or without drug	-0.56	-0.51	inactive
Or13a22	1	no change with or without drug	0.67	0.67	inactive
Lmtk2	1	no change with or without drug	0.22	1.52	inactive
Rab9b	1	no change with or without drug	-0.34	0	inactive
Stil	1	no change with or without drug	0.22	-0.84	inactive
Frat1	1	no change with or without drug	1.91	0.34	inactive
Tmem179b	1	no change with or without drug	0.56	1.01	inactive
Spint4	1	high cell count without drug only	0.9	2.02	inactive
Epn3	1	no change with or without drug	-0.11	0.51	inactive
Tuba1c	1	low cell count with and without drug	-2.02	-2.53	inactive
Tmem266	1	no change with or without drug	0.34	-0.51	inactive

No new results follow: an excerpt of the list.
Gene	reagent no.	combined z-score class	viability z-score with doxorubicin	viability z-score without drug	call
Or8d4	1	no change with or without drug	-0.56	-0.51	inactive
Or13a22	1	no change with or without drug	0.67	0.67	inactive
Lmtk2	1	no change with or without drug	0.22	1.52	inactive
Rab9b	1	no change with or without drug	-0.34	0	inactive
Stil	1	no change with or without drug	0.22	-0.84	inactive

Continued.
Gene	reagent no.	combined z-score class	viability z-score with doxorubicin	viability z-score without drug	call
Stfa2l1	1	no change with or without drug	0.45	-0.17	inactive
Etfb	1	no change with or without drug	0.34	1.01	inactive
Nopchap1	1	no change with or without drug	0.34	0.84	inactive
Manba	1	no change with or without drug	0.45	-0.84	inactive
Eif3a	1	low cell count with and without drug	-2.47	-2.02	inactive
H2-M11	1	no change with or without drug	0.9	0.17	inactive
Cpa4	1	high cell count with doxorubicin only	2.02	1.35	inactive
Fhip1b	1	no change with or without drug	0.56	1.35	inactive
Proz	1	no change with or without drug	0.67	-1.01	inactive
Ffar1	1	no change with or without drug	-0.45	0.51	inactive
Rbms3	1	no change with or without drug	0.22	-0.51	inactive
Lrrc42	1	no change with or without drug	0.34	1.18	inactive
Rcsd1	1	no change with or without drug	-0.22	1.85	inactive
Keg1	1	no change with or without drug	-0.67	-0.17	inactive
Jag2	1	no change with or without drug	-0.9	0.17	inactive
Lamb1	1	no change with or without drug	0	-0.51	inactive
Fbln7	1	high cell count with and without drug	2.02	2.19	inactive
Drp2	1	no change with or without drug	-0.22	0.17	inactive
Or4k6	1	no change with or without drug	-0.67	-0.34	inactive
Fam171a2	1	no change with or without drug	0.9	0.51	inactive
Fam181b	1	no change with or without drug	0.45	1.01	inactive
Fam50a	1	no change with or without drug	1.35	0	inactive
Abhd8	1	no change with or without drug	-1.91	-1.35	inactive
Exosc8	1	no change with or without drug	0.79	1.18	inactive
Afg1l	1	no change with or without drug	-0.45	-0.51	inactive
Acot1	1	no change with or without drug	0.22	0.17	inactive
Tal1	1	no change with or without drug	-0.67	0.17	inactive
Pde5a	1	no change with or without drug	-1.01	-1.52	inactive
